Measured values taken from the supplement of paper PMC10849652.
Some of the results follow.

By UniProt entry, the sequences of proteins in these tests, tags left out. Where a name states a change or a piece, a line headed by the entry shows the natural chain unless it says otherwise.
UniProt Q7L5Y9: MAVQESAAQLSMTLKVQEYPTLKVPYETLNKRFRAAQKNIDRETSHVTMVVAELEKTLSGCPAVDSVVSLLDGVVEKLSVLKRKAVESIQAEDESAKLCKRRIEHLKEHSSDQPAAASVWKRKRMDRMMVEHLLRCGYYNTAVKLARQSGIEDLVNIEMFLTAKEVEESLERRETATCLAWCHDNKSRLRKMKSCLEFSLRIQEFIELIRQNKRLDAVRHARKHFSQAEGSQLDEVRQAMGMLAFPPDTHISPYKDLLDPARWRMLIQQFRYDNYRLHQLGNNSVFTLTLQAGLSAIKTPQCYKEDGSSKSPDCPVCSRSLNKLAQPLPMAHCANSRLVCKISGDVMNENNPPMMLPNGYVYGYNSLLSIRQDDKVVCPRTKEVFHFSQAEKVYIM
UniProt P62310: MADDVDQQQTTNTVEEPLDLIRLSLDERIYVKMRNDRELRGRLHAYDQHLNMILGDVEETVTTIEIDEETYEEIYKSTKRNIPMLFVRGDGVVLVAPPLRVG
UniProt Q9NQ48: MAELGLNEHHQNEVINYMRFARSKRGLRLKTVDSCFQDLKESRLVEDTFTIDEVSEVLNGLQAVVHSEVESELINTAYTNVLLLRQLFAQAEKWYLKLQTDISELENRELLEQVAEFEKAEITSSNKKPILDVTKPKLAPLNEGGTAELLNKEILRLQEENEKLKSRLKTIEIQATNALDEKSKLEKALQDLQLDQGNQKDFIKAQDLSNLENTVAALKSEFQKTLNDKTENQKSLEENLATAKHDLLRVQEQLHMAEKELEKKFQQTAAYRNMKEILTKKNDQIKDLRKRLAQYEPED
UniProt Q5VWZ2: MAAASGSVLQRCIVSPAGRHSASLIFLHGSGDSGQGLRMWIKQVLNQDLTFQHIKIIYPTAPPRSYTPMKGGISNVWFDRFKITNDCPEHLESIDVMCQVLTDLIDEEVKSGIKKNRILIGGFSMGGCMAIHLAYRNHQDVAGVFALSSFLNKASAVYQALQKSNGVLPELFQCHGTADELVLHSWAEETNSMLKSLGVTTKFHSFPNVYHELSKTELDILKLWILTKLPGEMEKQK
UniProt Q96S90: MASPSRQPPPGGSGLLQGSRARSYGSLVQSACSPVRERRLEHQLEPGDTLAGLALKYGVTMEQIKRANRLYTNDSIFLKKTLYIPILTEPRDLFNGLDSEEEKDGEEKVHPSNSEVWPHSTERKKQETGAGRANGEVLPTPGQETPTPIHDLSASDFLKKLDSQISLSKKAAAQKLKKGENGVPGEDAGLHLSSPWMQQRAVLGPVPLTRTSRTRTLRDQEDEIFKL
UniProt Q8IWT6: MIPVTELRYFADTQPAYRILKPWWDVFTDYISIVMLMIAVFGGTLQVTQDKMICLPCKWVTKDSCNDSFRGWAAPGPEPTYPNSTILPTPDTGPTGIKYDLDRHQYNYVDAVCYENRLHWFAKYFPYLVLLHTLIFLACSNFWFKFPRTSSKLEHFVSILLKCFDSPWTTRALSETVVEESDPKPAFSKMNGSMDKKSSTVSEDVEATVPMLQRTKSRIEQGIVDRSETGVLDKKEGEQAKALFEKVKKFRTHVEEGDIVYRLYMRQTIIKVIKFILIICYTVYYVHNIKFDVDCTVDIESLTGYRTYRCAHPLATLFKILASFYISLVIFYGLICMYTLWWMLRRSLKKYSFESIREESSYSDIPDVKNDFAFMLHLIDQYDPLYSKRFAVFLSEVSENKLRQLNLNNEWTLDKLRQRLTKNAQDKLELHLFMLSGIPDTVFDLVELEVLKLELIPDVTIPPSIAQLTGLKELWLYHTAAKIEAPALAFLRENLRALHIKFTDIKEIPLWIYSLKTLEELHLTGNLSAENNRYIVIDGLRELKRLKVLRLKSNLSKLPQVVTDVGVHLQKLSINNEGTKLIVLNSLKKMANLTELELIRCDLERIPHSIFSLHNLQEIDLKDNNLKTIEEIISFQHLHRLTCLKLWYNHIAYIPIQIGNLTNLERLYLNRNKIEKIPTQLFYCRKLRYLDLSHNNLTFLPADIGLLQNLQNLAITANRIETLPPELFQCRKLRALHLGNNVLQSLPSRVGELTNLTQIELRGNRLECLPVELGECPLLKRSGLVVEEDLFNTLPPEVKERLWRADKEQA
UniProt Q8WXG6, whole entry, looked up: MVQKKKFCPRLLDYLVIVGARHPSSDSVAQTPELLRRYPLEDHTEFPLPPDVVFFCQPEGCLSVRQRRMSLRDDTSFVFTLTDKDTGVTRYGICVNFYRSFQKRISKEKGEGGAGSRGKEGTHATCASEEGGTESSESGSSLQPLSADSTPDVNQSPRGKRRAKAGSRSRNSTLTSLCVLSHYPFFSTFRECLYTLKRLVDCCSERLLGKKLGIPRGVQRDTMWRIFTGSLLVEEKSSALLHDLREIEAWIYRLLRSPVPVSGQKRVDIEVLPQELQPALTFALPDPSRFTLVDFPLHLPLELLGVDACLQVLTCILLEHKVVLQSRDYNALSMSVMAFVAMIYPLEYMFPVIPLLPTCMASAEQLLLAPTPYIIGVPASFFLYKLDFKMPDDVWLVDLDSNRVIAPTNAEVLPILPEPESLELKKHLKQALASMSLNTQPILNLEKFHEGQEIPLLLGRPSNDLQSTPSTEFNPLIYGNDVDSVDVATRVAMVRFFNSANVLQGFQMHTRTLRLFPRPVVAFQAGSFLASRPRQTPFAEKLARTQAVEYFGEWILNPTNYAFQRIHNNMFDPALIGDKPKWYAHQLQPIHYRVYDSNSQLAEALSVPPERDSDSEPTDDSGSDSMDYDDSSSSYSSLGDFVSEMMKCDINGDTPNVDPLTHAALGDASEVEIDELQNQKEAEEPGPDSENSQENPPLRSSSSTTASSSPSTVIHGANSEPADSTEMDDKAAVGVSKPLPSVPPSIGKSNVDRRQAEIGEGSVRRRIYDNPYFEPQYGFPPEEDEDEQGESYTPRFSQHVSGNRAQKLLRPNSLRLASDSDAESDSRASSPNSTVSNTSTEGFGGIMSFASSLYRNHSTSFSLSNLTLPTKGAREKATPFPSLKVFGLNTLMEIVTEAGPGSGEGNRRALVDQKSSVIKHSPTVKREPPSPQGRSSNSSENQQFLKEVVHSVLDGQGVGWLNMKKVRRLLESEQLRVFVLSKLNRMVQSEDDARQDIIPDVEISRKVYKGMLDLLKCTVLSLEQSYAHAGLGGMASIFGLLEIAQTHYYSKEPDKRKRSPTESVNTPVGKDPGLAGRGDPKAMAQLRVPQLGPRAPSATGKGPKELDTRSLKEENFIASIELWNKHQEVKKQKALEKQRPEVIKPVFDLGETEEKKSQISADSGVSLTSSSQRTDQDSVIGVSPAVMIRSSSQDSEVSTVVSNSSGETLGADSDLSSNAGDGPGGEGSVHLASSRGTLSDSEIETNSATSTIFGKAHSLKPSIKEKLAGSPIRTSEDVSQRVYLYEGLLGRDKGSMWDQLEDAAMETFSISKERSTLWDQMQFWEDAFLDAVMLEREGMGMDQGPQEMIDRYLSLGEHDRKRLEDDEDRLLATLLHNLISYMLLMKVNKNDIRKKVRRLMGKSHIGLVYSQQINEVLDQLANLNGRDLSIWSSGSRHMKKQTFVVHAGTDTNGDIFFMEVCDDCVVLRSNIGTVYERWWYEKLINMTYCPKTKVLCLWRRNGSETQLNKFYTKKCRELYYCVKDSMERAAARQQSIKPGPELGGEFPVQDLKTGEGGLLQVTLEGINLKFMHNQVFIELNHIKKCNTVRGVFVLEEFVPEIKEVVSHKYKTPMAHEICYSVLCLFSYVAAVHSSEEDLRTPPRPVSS
UniProt Q9H0U3: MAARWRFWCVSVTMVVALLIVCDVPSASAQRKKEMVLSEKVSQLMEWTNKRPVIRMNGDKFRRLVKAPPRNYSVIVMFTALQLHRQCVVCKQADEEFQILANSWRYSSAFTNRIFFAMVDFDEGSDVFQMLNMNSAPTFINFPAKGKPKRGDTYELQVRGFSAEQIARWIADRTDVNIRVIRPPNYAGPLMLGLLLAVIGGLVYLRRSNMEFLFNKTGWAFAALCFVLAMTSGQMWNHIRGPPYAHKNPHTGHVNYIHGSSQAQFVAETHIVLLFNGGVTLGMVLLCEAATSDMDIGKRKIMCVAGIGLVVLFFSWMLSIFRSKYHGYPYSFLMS
UniProt Q15013: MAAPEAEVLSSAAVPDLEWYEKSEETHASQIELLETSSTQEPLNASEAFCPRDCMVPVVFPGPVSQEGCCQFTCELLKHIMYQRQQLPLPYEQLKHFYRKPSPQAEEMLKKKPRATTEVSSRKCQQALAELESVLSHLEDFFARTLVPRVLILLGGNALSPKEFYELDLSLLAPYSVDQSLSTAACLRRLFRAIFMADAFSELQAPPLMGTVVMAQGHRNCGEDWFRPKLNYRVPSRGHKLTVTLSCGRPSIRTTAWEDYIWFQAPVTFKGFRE
UniProt Q99759: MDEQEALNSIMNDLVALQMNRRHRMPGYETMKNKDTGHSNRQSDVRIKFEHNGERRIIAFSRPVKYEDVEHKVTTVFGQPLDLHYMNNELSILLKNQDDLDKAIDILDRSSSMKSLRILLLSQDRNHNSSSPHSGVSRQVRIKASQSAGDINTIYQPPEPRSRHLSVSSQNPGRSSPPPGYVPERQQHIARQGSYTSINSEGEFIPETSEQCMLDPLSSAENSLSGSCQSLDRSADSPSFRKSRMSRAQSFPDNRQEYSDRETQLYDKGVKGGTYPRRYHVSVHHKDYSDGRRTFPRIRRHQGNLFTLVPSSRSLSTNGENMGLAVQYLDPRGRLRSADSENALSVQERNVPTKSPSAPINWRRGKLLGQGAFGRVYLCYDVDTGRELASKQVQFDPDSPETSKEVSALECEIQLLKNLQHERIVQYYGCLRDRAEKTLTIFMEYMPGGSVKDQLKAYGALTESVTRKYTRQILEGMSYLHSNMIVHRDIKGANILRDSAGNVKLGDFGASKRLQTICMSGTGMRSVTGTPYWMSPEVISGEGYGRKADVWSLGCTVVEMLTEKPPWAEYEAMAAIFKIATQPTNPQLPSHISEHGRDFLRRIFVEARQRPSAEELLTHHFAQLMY
UniProt Q5SRI9: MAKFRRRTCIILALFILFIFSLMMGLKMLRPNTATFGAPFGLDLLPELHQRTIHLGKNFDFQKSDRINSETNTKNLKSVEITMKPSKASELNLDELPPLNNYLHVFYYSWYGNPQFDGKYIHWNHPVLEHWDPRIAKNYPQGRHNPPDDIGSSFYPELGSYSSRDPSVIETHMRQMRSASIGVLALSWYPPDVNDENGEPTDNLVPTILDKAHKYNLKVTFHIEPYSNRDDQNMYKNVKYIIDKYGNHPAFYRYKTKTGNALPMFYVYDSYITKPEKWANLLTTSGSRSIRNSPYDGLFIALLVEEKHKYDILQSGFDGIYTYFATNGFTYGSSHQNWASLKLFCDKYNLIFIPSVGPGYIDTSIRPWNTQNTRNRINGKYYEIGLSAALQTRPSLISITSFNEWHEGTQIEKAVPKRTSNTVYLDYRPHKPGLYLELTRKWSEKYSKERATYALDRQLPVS
UniProt P27361, whole entry, looked up: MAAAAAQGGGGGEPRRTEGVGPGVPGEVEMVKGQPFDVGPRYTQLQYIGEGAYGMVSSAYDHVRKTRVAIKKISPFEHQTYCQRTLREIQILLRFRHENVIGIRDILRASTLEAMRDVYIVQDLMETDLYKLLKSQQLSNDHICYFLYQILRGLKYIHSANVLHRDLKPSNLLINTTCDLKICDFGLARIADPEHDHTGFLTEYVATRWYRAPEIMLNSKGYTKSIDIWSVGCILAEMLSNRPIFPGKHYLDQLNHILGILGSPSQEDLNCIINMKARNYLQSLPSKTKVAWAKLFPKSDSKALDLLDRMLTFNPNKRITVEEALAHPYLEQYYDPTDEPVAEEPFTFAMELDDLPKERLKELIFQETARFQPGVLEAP
UniProt O43325: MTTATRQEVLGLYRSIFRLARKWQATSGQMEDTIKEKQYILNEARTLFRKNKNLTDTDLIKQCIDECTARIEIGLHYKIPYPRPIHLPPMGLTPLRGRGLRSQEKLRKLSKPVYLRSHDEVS
UniProt O95777: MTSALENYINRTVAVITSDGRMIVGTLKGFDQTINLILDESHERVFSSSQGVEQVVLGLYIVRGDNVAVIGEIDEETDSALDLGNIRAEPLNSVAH
UniProt Q9Y4Z0: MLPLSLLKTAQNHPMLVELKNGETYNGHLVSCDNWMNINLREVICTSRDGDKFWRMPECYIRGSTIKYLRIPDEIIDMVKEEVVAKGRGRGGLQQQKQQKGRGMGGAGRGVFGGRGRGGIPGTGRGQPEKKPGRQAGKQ
UniProt P43366: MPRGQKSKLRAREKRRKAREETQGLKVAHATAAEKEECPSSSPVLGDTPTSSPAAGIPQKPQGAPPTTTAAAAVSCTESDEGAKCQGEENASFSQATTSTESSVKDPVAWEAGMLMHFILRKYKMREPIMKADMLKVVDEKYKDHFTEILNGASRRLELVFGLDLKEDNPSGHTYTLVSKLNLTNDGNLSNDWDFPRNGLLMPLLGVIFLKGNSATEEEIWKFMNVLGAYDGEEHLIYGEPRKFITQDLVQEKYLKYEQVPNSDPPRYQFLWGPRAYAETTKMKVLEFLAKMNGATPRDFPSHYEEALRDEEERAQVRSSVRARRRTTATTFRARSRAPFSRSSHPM

compound: c1cn2cc(-c3ccc4cn[nH]c4c3)nc(Nc3ccc(N4CCOCC4)cc3)c2n1 [entospletinib]; test: log2 fold change, soluble protein after heating vs DMSO (PISA); higher = thermal stabilisation; K562 cells, 10 uM, 30 min; active = over 0.2 and 3.5 SD of the protein, either way, in both replicates (recomputed)
In short: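 Values are thermal stability changes relative to control samples and are taken from duplicates. They are stated as log2 fold changes. Before quantification by TMTpro 16plex LC-MS/MS with equalised channel sums, K562 cells at 2×10^6 cells/mL were treated with 10 μM compound for 30 min, heated in aliquots for 3 min across 48°C-58°C, pooled, extracted in PBS with 0.5% NP-40 at 4°C, and centrifuged at 21,000xg for 90 min to give the soluble supernatant.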

log2 fold change, inactive:
MAN1B1 (UniProt Q9UKM7) 0.139
MAGEC1 (UniProt O60732) 0.191
MAEA (UniProt Q7L5Y9) -0.037
MAPK6 (UniProt Q16659) 0.069
LSM3 (UniProt P62310) 0.008
LZTFL1 (UniProt Q9NQ48) 0.023
LYPLAL1 (UniProt Q5VWZ2) -0.03
LYSMD1 (UniProt Q96S90) -0.104
MAN1A2 (UniProt O60476) 0.033
LSM7 (UniProt Q9UK45) -0.046
MACF1 (UniProt H3BQK9) 0.068
LRRC8C (UniProt Q8TDW0) -0.074
MAGI3 isoform 1 (UniProt Q5TCQ9) -0.086
MAN2B1 (UniProt O00754) 0.023
LRRC8A (UniProt Q8IWT6) 0.29
MADD isoform 2 (UniProt Q8WXG6) 0.107
MAGT1 (UniProt Q9H0U3) 0.006
MAP3K2 (UniProt Q9Y2U5) -0.31
MAD2L1BP isoform 3 (UniProt Q15013) -0.007
MAPRE1 (UniProt Q15691) -0.014
MAP3K3 isoform 2 (UniProt Q99759) 0.029
MANEA (UniProt Q5SRI9) -0.004
MAPK3 (UniProt P27361) -0.085
LYRM1 (UniProt O43325) -0.011
LSM8 (UniProt O95777) -0.033
LSM4 (UniProt Q9Y4Z0) -0.031
MAGEB1 (UniProt P43366) 0.082
LRRFIP2 (UniProt Q9Y608) 0.035

Quoted at random: 2 records from the list.
log2 fold change, inactive:
MAN1B1 (UniProt Q9UKM7) 0.139
MAGI3 isoform 1 (UniProt Q5TCQ9) -0.086
